These are yes or no findings as the source states them, for the method shown. In cells and extracts the contact can be indirect.

Amino acid sequences for entries named in this document (tags omitted). A change or cut given only in a name is not applied to a line headed by its entry. Residues count along the entry.
UniProt Q9NZQ7: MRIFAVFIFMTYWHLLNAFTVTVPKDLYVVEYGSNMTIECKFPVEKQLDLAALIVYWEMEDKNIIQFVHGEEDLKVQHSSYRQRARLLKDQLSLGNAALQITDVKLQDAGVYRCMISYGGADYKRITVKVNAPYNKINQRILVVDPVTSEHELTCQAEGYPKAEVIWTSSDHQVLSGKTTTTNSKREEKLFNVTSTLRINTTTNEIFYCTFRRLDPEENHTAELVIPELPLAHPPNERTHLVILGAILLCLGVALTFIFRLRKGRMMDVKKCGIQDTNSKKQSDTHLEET
UniProt P08581, residues 25-1390: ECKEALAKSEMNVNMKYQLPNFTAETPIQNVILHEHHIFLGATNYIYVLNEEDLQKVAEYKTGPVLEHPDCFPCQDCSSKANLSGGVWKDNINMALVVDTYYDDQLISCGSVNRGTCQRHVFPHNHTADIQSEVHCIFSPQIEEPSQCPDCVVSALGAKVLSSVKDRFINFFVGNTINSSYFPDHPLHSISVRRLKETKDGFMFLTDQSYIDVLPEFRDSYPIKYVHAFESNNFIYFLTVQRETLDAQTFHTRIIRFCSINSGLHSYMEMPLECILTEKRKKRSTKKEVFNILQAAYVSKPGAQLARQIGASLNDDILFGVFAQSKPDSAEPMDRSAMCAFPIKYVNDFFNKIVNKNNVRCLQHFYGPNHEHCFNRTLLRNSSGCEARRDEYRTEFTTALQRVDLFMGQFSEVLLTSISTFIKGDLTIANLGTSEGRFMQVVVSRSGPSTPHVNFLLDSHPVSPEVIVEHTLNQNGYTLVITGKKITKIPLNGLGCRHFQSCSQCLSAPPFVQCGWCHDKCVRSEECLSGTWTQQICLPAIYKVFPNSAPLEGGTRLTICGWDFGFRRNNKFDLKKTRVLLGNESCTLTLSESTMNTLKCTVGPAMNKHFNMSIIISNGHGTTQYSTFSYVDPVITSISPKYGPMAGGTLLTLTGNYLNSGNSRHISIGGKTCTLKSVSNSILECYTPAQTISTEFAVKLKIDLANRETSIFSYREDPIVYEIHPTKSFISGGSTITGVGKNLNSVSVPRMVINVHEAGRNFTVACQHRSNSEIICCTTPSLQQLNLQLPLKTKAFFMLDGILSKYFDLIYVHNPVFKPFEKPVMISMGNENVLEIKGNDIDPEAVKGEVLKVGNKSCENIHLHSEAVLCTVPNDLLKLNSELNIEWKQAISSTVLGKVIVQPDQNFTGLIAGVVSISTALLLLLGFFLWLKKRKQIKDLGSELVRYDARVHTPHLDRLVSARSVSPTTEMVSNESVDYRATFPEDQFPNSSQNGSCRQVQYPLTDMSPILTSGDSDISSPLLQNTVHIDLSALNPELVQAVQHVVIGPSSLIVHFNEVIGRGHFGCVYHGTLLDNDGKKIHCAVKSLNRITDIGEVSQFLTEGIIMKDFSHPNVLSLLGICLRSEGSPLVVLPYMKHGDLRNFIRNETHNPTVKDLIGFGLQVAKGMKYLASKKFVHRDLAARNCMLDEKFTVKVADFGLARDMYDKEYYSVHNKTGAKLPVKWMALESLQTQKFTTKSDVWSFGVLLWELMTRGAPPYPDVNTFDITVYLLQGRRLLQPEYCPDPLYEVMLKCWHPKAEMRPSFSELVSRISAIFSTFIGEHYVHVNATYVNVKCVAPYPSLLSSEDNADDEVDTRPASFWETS

Here are results for one substance from article PMC9264908.

The assay addresses recombinant-human PD-L1 (programmed death ligand 1) (human) (UniProt Q9NZQ7). As to the kind of experiment: co-IP; PD-L1 as bait: PDAC cells treated with PD-L1 for 1 h before lysate collection; 1 mg pre-cleared lysate incubated overnight at 4 °C with 75 µg polyclonal anti-PD-L1 or IgG; blot for MET; only the target purified.

With “c-MET (MET, mesenchymal-epithelial transition factor) (from UniProt P08581 25-1390) (receptor)”, the binding result was “no binding”.
